# Data as given in PubChem BioAssay AID504804 (Drosophila RNAi Screening Center, 2011).
# Purpose: 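Knock-downs shielding fly cells from apoptosis caused by DNA damage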 (primary screen)
# Cells: Drosophila Kc cells
# Reagents: long dsRNA against Drosophila genes, 0.5 µg dsRNA per well
# Time to read-out: 96 h (48 h knock-down, then 48 h drug)
# Conditions: doxorubicin 5 µg/ml for 48 h, added 48 h after dsRNA
# Measured: 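Luminescent ATP counts per replicate, not normalised, reflecting viable cells after 48 h dsRNA knock-down followed by 48 h of 5 µg/ml doxorubicin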
# Scale: raw ATP luminescence: higher = more viable cells, protection from doxorubicin
# Active means: 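z-score of 2 or more over plate mean in both duplicates, retained only when retests and separate dsRNAs confirm the protection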
# The screen tested about 19,000 reagents; this is a random part of those that have a named target and a result. Over the whole deposit, 47 (0.25%) got an active call. 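Signals are raw, not normalised; exact z-scores behind calls not deposited; actives needed confirmation, so some wells reaching 2 SD are inactive.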
Gene,DRSC id,SD above plate mean,"raw ATP luminescence, replicate 1","raw ATP luminescence, replicate 2",Outcome
CG7695,DRSC16289,,59250,52540,inactive
dyl,DRSC08466,,40553,41087,inactive
dyl,DRSC08467,at least 2 SD above plate mean,,,active
TrpRS,DRSC14097,,2213,53207,inactive
CG15169,DRSC02470,,58423,77523,inactive
spz3,DRSC02391,,43057,57717,inactive
spz3,DRSC03008,,40673,57633,inactive
Papst2,DRSC10924,,23540,24617,inactive
CG10226,DRSC09715,,34717,42793,inactive
CG15741,DRSC19707,,3.17e5,2.68e5,inactive
CG42750,DRSC02458,,33753,44810,inactive
CG42750,DRSC03019,,50997,71333,inactive
CG42750,DRSC03024,,83487,1.19e5,inactive
kto,DRSC10983,,27430,23863,inactive
SmD2,DRSC12536,,34253,40377,inactive
CG6184,DRSC15986,,37750,66800,inactive
nmo,DRSC08902,,1.29e5,1.46e5,inactive
nmo,DRSC11377,,37583,35043,inactive
CG4763,DRSC04009,,1.20e5,97477,inactive
CG4763,DRSC04487,,80410,76163,inactive
CG44422,DRSC18885,,2.70e5,3.62e5,inactive
CG44422,DRSC19380,,2.91e5,2.79e5,inactive
CG44422,DRSC19480,,2.24e5,2.63e5,inactive
Spps,DRSC15856,,36253,39133,inactive
CG14631,DRSC17792,,53380,55500,inactive
CG14631,DRSC17941,,58800,54740,inactive
CG7720,DRSC16306,,48267,61650,inactive
CG7720,DRSC16307,,1.94e5,1.94e5,inactive
l(2)37Cb,DRSC02095,,1.01e5,88970,inactive
CG3165,DRSC00573,,1.12e5,67097,inactive
dan,DRSC14406,,33487,33363,inactive
l(3)72Dn,DRSC10468,,19357,23310,inactive
CG15580,DRSC12266,,71053,81247,inactive
CG13566,DRSC04203,,42970,51750,inactive
